Measurements reported in PubChem BioAssay AID504793 (Drosophila RNAi Screening Center, 2011)

Purpose: 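Whole-genome screen for parts of the DNA damage checkpoint at G2/M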 (primary screen)
System: Drosophila S2R+ cells
Reagents: long dsRNA against Drosophila genes, about 0.25 µg dsRNA per well
Duration: 4 days of dsRNA, then 4 hours of drug before read-out
Treatment: doxorubicin 0.5 µM for 4 hours to cause double-strand breaks, in cells also given a low, harmless dose of dsRNA against nbs to sensitise the assay
Measured: 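Per-well count of mitotic cells stained for phospho-histone H3 after doxorubicin exposure, used as mitotic index; counts are raw and not normalised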
Direction: mitotic cells: higher = more cells in mitosis, weaker G2 arrest
Hit rule: 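Genes are called active only when high mitotic counts were reproduced with independent dsRNAs and mitosis was checked for delay without damage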
Meaning of the calls: active = confirmed in follow-up tests; inactive = not confirmed
The screen tested about 23,000 reagents; below is an unselected part of those with a known target gene and a result. Over the whole deposit, 62 (0.27%) are marked active. 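Calls come from follow-up tests whose scores are not deposited, so confirmed genes may have low counts here; counts are not normalised per plate.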 Raw values are not corrected between plates. Unmarked entries are inactive. Reagents against one gene are numbered here.

predicted target | reagent no. | mitotic cells, replicate 1
Parg (Poly(ADP-ribose) glycohydrolase) | 1 | 3
CG14111 | 1 | 6
CG14111 | 2 | 5
CG10550 | 1 | 3
ttv (tout-velu) | 1 | 2
ttv (tout-velu) | 2 | 10
CG33259 | 1 | 5
CG33259 | 2 | 9
CG13700 | 1 | 4
CG13700 | 2 | 6
Oseg6 (Outer segment 6) | 1 | 11
CG33346 | 1 | 12
peb (pebbled) | 1 | 7
peb (pebbled) | 2 | 7
Eglp3 (Entomoglyceroporin 3) | 1 | 1
Eglp3 (Entomoglyceroporin 3) | 2 | 8
nub (nubbin) | 1 | 8
nub (nubbin) | 2 | 2
nub (nubbin) | 3 | 15
nub (nubbin) | 4 | 6
nub (nubbin) | 5 | 5
nub (nubbin) | 6 | 3
CG2003 | 1 | 6
CG33342 (HDC15381) | 1 | 19
CG8343 | 1 | 4
CG8343 | 2 | 5
Rai1 (Rat1 Interacting Protein 1) | 1 | 12
Rai1 (Rat1 Interacting Protein 1) | 2 | 8
ppk13 (pickpocket 13) | 1 | 8
Gr2a (Gustatory receptor 2a) | 1 | 11
CG7542 | 1 | 8
scrt (scratch) | 1 | 18
scrt (scratch) | 2 | 4
CG9427 | 1 | 10
CG9427 | 2 | 5
Or94b (Odorant receptor 94b) | 1 | 8
Or94b (Odorant receptor 94b) | 2 | 2
CG4553 | 1 | 9
CG4553 | 2 | 2
tho2 | 1 | 11
tho2 | 2 | 5
CG33090 | 1 | 8
CG33090 | 2 | 9
CG8187 | 1 | 4
uif (uninflatable) | 1 | 4
NitFhit (Nitrilase and fragile histidine triad fusion protein) | 1 | 6
NitFhit (Nitrilase and fragile histidine triad fusion protein) | 2 | 5
Ide (Insulin degrading metalloproteinase) | 1 | 5
snz (snazarus) | 1 | 6
e(y)3 (enhancer of yellow 3) | 1 | 11
e(y)3 (enhancer of yellow 3) | 2 | 14
Gli (Gliotactin) | 1 | 5
mRpL33 (mitochondrial ribosomal protein L33) | 1 | 6
pncr011:3L (retired record) | 1 | 15
pncr011:3L (retired record) | 2 | 3
pigs (pickled eggs) | 1 | 12
pigs (pickled eggs) | 2 | 16
pigs (pickled eggs) | 3 | 7
CG6225 | 1 | 6
obst-G (obstructor-G) | 1 | 3
CG11262 | 1 | 10
CG13044 | 1 | 2
CG13044 | 2 | 3
CG8138 | 1 | 5
HP5 (Heterochromatin protein 5) | 1 | 2
HP5 (Heterochromatin protein 5) | 2 | 4
Moca-cyp | 1 | 8
Moca-cyp | 2 | 3
escl | 1 | 4
escl | 2 | 5
Plod (procollagen lysyl hydroxylase) | 1 | 4
Plod (procollagen lysyl hydroxylase) | 2 | 3
Cyp4p2 (Cytochrome P450 4p2) | 1 | 10
Cyp4p2 (Cytochrome P450 4p2) | 2 | 2
CG5339 | 1 | 5
Cyp301a1 (Cytochrome P450 301a1) | 1 | 9
tyn (trynity) | 1 | 4
CG3216 | 1 | 9
CG3216 | 2 | 8
Agpat2 (1-Acylglycerol-3-phosphate O-acyltransferase 2) | 1 | 7
Agpat2 (1-Acylglycerol-3-phosphate O-acyltransferase 2) | 2 | 6
Tim9a | 1 | 8
Ccp84Af | 1 | 2
Ccp84Af | 2 | 3
Cul4 (Cullin 4) | 1 | 10
Cul4 (Cullin 4) | 2 | 13
Octalpha2R (alpha2-adrenergic-like octopamine receptor) | 1 | 4
Octalpha2R (alpha2-adrenergic-like octopamine receptor) | 2 | 6
Sar1 (Secretion-associated Ras-related 1) | 1 | 11
Sar1 (Secretion-associated Ras-related 1) | 2 | 9
Sar1 (Secretion-associated Ras-related 1) | 3 | 2
dlp (dally-like) | 1 | 6
dlp (dally-like) | 2 | 6
Ubc4 (Ubiquitin conjugating enzyme 4) | 1 | 4
Atg16 (Autophagy-related 16) | 1 | 4
Atg16 (Autophagy-related 16) | 2 | 13
Atg16 (Autophagy-related 16) | 3 | 10
Naa40 (N(alpha)-acetyltransferase 40) | 1 | 9
sicily (severe impairment of CI with lengthened youth) | 1 | 12
PPP4R2r (Protein phosphatase 4 regulatory subunit 2-related protein) | 1 | 11
PPP4R2r (Protein phosphatase 4 regulatory subunit 2-related protein) | 2 | 5
PPP4R2r (Protein phosphatase 4 regulatory subunit 2-related protein) | 3 | 7
Xbp1 (X box binding protein-1) | 1 | 9
Xbp1 (X box binding protein-1) | 2 | 12
CG14246 | 1 | 4
CG14246 | 2 | 10
Atf6 | 1 | 10
Atf6 | 2 | 6
Atf6 | 3 | 6
Ogdh (Oxoglutarate dehydrogenase) | 1 | 7
Ogdh (Oxoglutarate dehydrogenase) | 2 | 3

Already shown: 11 of the entries above.
predicted target | reagent no. | mitotic cells, replicate 1
CG13700 | 1 | 4
CG13700 | 2 | 6
Oseg6 (Outer segment 6) | 1 | 11
CG33346 | 1 | 12
peb (pebbled) | 1 | 7
peb (pebbled) | 2 | 7
Eglp3 (Entomoglyceroporin 3) | 1 | 1
Eglp3 (Entomoglyceroporin 3) | 2 | 8
nub (nubbin) | 1 | 8
nub (nubbin) | 2 | 2
nub (nubbin) | 3 | 15
